# Test results taken from the supplement of paper PMC12067093, “Discovery and optimisation of a covalent ligand for TRIM25 and its application to targeted protein ubiquitination” (Chemical Science, 2025).
# This is one part of the list.
# Experiments:
# Experiment in all cases: probe-labelled cysteine peptide fold change vs DMSO (competition) (log2 fold change); higher = less target engagement (more negative = stronger competition)
# Settings in all cases: THP-1, incubation time: 4 h
# [1] = target: HIVEP3_Q5T1R4_1369_GTTVCGADVHEVGPGPSGLSEEQSR (UniProt Q5T1R4)
# [2] = target: HIVEP3_Q5T1R4_1756_YVCEECGIR (UniProt Q5T1R4)
# [3] = target: HIVEP3_Q5T1R4_324_CSLSQSSTAQSLEDPPPFVEPSSEHPLSHKPEDTHTIK (UniProt Q5T1R4)
# 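Also: competitive profiling in live THP-1 cells: cysteine peptides tagged with an iodoacetamide desthiobiotin (IA-DTB) probe, intensity after compound treatment relative to DMSO-treated cells.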
smiles,measurement,setting,value
Cc1cc(C(=O)N2CCCN(C(=O)CCl)CC2)ccc1-c1ccccc1 [compound 10],probe-labelled cysteine peptide fold change,[1]; 10 µM,-0.288
same,probe-labelled cysteine peptide fold change,[1]; 50 µM,-0.335
same,probe-labelled cysteine peptide fold change,[2]; 10 µM,0.0727
same,probe-labelled cysteine peptide fold change,[2]; 50 µM,0.154
same,probe-labelled cysteine peptide fold change,[3]; 10 µM,0.109
same,probe-labelled cysteine peptide fold change,[3]; 50 µM,-0.192
